Measurements reported in patent publication EP1063290A1, “NOVEL DICARBONYLREDUCTASE AND GENE ENCODING THE SAME” (TAISHO PHARMACEUTICAL CO., LTD, priority 1998, dated 1999).
For some assays here: At least one read-out could not be matched to a standard name with certainty. At least one structure is not confirmed: it was looked up by name or label, or the drawing left a doubt.

Sequences of proteins named here, by UniProt entry; tags and fusion partners are left off. A change or cut given only in a name is not applied to a line headed by its entry.
UniProt Q7Z4W1: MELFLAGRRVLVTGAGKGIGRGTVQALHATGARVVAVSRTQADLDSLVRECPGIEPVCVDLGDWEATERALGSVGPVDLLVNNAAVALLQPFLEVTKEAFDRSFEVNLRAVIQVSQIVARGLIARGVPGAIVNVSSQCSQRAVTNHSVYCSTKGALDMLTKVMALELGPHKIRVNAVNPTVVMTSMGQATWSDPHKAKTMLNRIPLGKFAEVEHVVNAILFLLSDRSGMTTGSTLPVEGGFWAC
UniProt Q91X52: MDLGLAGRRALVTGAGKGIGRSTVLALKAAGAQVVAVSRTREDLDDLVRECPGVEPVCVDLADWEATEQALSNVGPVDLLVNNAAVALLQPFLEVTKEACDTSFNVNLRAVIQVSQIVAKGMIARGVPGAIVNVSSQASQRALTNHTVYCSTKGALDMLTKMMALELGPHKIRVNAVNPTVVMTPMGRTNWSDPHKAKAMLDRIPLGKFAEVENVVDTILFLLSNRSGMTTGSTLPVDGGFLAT

Key:
protein hDCR1 = protein hDCR1 (Homo sapiens, UniProt Q7Z4W1); experiment: Dicarbonyl reductase activity assay: substrate specificity (NAD(P)H oxidation at 340 nm); settings: substrate concentration 1,000 μM; against a reference of 100 for diacetyl
Description: (§1) The enzyme activity assay method is not particularly restricted, and it may be based on the activity assay method for mouse carbonyl reductase (CR) (Eur. J. Biochem. 22, 381-387(1995)). The enzyme used here was an expressed recombinant enzyme. • (a) Substrate specificity: In order to determine the substrate specificity, there may be used a hydrocarbon system including various ketone, aldehyde and ester groups, or an aromatic compound.
(§2) The reaction mixture (total: 2.0 ml) comprised an 80 mM potassium phosphate solution (pH 7.0 or 6.0), 0.1 mM NADPH or NADH and a carbonyl substrate or enzyme (50 µl) (10.1 µg or 3.7 µg of hDCR1).
The oxidation rate for NAD(P)H was measured at 340 nm.
One unit of enzyme activity was defined as that which catalyzed oxidation of 1 µmol of NAD(P)H in one minute at 25°C.

protein DCR1 = protein DCR1 (Mus musculus, UniProt Q91X52); experiment: Dicarbonyl reductase activity assay: substrate specificity and rate constants (NAD(P)H oxidation at 340 nm)
Description: as §1
as §2, with “• (1) This was assayed under the following conditions. The” for “The”, “glomerin B). The oxidation rate for NAD(P)H was measured at 340 nm.” for “hDCR1).”

[1] = tested on: dicarbonyl reductase of the invention; experiment: Substrate reactivity features summarised from Tables 1, 2 and 3; assay type: biochemical; settings: summary in words of Tables 1, 2 and 3

CC(=O)C(C)=O [Diacetyl(2,3-butanedione)]
RA (%) relative activity (protein hDCR1): 100%
Vmax/Km (protein DCR1; catalyst efficiency, mouse enzyme): 6.7 unit/mg/mM
Vmax (protein DCR1; rate constants for the major substrates, mouse enzyme): 6.1 unit/mg
RA (%) relative activity (protein DCR1; substrate concentration 1,000 μM, against a reference of 100 for diacetyl): 100%
reactivity (as substrate) [1]: strong reactivity
